# In US20220175942A1:
# These are yes or no findings as the source states them, for the method shown. Some results given as binding are weak or reduced against the parent protein; the word gives no strength. For some assays here: Where a sequence is shown, tags or fusion partners need not be part of it.
# T1: CCL19_HUMAN (human), Q99731
# T1 chain: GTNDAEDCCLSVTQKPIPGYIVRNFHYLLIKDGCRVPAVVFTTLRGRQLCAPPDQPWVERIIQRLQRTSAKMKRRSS
# T2: CCL5_HUMAN (human), P13501
# T2 chain: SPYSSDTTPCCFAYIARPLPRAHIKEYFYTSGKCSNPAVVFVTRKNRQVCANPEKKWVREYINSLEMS
# T3: CX3CL1_HUMAN (human), P78423
# T3 chain: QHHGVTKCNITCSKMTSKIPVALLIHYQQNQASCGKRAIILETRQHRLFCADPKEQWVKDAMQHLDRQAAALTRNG
# T4: CCL17_HUMAN (human), Q92583
# T4 chain: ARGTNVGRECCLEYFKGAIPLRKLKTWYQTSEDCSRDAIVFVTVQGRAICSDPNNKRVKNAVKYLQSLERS
# T5: CXCL11_HUMAN (human), O14625
# T5 chain: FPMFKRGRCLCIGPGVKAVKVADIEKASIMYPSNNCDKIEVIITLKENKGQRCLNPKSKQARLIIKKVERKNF
# T6: CCL15_HUMAN (human) (UniProt Q16663)
# T6 sequence: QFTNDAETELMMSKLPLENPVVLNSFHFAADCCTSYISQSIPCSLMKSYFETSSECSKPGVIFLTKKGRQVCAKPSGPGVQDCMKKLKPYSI
# B1: P546_AMBCA, A0A023FBW7 22-118 (protein)
# chain: ENTQQEEEDYDYGTDTCPFPVLANKTNKAKFVGCHQKCNGGDQKLTDGTACYVVERKVWDRMTPMLWYSCPLGECKNGVCEDLRKKEECRKGNGEEK
# B2: P985_AMBPA, A0A023FT45 25-132 (protein)
# chain: DEESEELGASTDVDYEELDANCTCPAPALTSTRNNKHYPLGCIYNCSSYNCTIPDGTPCYVLTLGEVKEHLQIGSTVPNCTCGLCRNGTCVSNGTVEECFAVEEIEET
# B3: P1243_AMBAM (protein)
# chain: RNHTEDNSTEYYDYEEARCACPARHLNNTNGTVLKLLGCHYFCNGTLCTAPDGYPCYNLTAQQVRTLTTYPNTSCAVGVCMKGTCVKNGTMEQCFKTP
# Columns and labels:
# [1] = target: T1, CCL19_HUMAN (human), Q99731; experiment: yeast surface display FACS re-test, >3 fold MFI over control (col D); details: remark: other sources report otherwise
# [2] = target: T2, CCL5_HUMAN (human), P13501; experiment: as above; details: remark: other sources report otherwise
# [3] = target: T3, CX3CL1_HUMAN (human), P78423; experiment: as above; details: remark: other sources report otherwise
# [4] = target: T2, CCL5_HUMAN (human), P13501; experiment: yeast surface display library FACS screen, labelled chemokine (col C: isolated in); details: remark: other sources report otherwise
# [5] = target: T4, CCL17_HUMAN (human), Q92583; experiment: yeast surface display FACS re-test, >3 fold MFI over control (col D); details: remark: other sources report otherwise
# [6] = target: T5, CXCL11_HUMAN (human), O14625; experiment: as above; details: remark: other sources report otherwise
# CCL15_HUMAN (human) [7] = target: T6, CCL15_HUMAN (human); experiment: as above
# CCL15_HUMAN (human) [8] = target: T6, CCL15_HUMAN (human); experiment: yeast surface display library FACS screen, labelled chemokine (col C: isolated in)
binder,measurement,setting,value
B1,binding,[1],binds
same,binding,[2],binds
same,binding,[3],binds
same,binding,[4],binds
B2,binding,[5],binds
same,binding,[6],binds
B3,binding,CCL15_HUMAN (human) [7],binds
same,binding,CCL15_HUMAN (human) [8],binds
